Results as given in PubChem BioAssay AID623997 (National Center for Advancing Translational Sciences (NCATS), 2012).
Inconclusive means that the source gave no clear call. Such entries were picked first, then a sample of the others. Calls of active or inactive are those of the source. No rule for the calls is given here.

Experiment: qHTS Assay for Inhibitors of Influenza NS1 Protein Function: Mammalian Cell Viability
Details: NS1 counter-screen; at 100 µM (top of the series)
Description: Influenza is a world-wide public health problem and emerging forms of the virus have the potential to cause a pandemic of equal or greater magnitude to the outbreaks recorded in 1918, 1957 or 1968. Vaccine development is proceeding and there also exist two classes of anti-influenza compounds. However these therapeutic modalities are neither fully effective nor widely enough available to fulfill global needs. In addition their potential usefulness against newly emergent strains is not known. Efforts are needed to develop novel agents against influenza virus, including broad-spectrum agents. Identification of small molecules that inhibit NS1 function either directly or by interfering with specific cellular pathways may be a key to increasing our defense against the virus.
We have miniaturized and optimized a cell based assay in which NS1 from influenza A is expressed in the budding yeast S. cerevisiae. NS1 is a multi-functional protein that counters the host innate immune response and facilitates viral versus cellular gene expression. Expression of NS1 causes a pronounced slow growth phenotype in yeast due to its intrinsic molecular activities. Small molecules that suppress the slow growth phenotype can be identified by a straightforward growth recovery assay using optical density (OD) as the measurement. The same yeast strain not expressing NS1 was used as positive control in the yeast growth recovery assay.
Hits resulting from this primary screen and other follow-up screens, were tested in four concentrations for this mammalian cell viability assay, using MDCK cells.
NIH Chemical Genomics Center [NCGC]
NIH Molecular Libraries Probe Centers Network [MLPCN]
Assay Submitter (PI): Daniel Engel, University of Virgina
Opaque-walled 96-well plates were seeded with […] MDCK cells per well in 100 uL medium and incubated overnight at 37 deg C. The compound was added to triplicate wells for each concentration tested and incubated for 48 h at 37 deg C. The plate was equilibrated for 30 min at room temperature and 100 uL CellTiter Glo reagent (Promega) added according to the manufacturer's protocol. The plate was shaken for 2 min and then incubated for 10 min at room temperature. Luminescence was recorded in an LMAX 384 reader (Molecular Devices) with integration time of 1 s.

| Structure (SMILES) | viability |
| --- | --- |
| Cc1ccc(-n2nc(C)c3c(-c4ccc(O)c(O)c4)c(C#N)c(N)nc32)cc1C | inconclusive: 0.246% |
| COc1ccc(-c2c(C#N)c(=O)[nH]c3c2c(C)nn3-c2ccc(F)cc2)cc1OC | inconclusive: 9.24% |
| COc1cc(-c2c(C#N)c(N)nc3c2c(C)nn3-c2ccc(Cl)cc2)ccc1O | inconclusive: 47.3% |
| COc1cc(-c2c(C(=O)O)cnc3c2c(C)nn3-c2ccc(F)cc2)ccc1O | inconclusive: 46.4% |
| COc1cc(-c2ccnc3c2c(C)nn3-c2cccc(C(F)(F)F)c2)ccc1O | inactive: 114% |
| COc1cc(-c2c(C#N)c(N)nc3c2c(C)nn3-c2ccc(C)cc2)cc(OC)c1OC | inactive: 99.9% |
| CCOc1cc(-c2c(C#N)c(=O)[nH]c3c2c(C)nn3-c2ccc(F)cc2)ccc1O | inconclusive: 43.4% |
| COc1cc(-c2ccnc3c2c(C)nn3-c2ccccc2)ccc1O | inconclusive: 37.6% |
| COc1ccc(-c2c(C#N)c(=O)[nH]c3c2c(C)nn3-c2ccccc2)cc1OC | inconclusive: 36.7% |
| COc1cc(-c2ccnc3c2c(C)nn3-c2ccc(C(F)(F)F)cc2)ccc1O | inactive: 118% |
| COc1cccc(-c2ccnc3c2c(C)nn3-c2ccc(F)cc2)c1 | active: 4.7% |
